The assay concerns the target toll-like receptor 4 (mouse (endogenous in RAW264.7)) (UniProt Q9QUK6). Kind of assay: co-IP; RAW264.7 cells pretreated with baicalein (0, 10, 25, 50 uM) for 2 h, then LPS (1 ug/ml) for 24 h; 500 ug cellular protein with 2 ug anti-TLR4 antibody 2 h at 4 C, protein A beads overnight at 4 C; immunoblot for MD-2 and TLR4. In general terms: Immunoblotting shows a protein as a band on a membrane.

Protein sequences, listed by entry. Tags and fused reporters are not part of them. Residues count along the entry.
UniProt Q9QUK6, residues 26-835: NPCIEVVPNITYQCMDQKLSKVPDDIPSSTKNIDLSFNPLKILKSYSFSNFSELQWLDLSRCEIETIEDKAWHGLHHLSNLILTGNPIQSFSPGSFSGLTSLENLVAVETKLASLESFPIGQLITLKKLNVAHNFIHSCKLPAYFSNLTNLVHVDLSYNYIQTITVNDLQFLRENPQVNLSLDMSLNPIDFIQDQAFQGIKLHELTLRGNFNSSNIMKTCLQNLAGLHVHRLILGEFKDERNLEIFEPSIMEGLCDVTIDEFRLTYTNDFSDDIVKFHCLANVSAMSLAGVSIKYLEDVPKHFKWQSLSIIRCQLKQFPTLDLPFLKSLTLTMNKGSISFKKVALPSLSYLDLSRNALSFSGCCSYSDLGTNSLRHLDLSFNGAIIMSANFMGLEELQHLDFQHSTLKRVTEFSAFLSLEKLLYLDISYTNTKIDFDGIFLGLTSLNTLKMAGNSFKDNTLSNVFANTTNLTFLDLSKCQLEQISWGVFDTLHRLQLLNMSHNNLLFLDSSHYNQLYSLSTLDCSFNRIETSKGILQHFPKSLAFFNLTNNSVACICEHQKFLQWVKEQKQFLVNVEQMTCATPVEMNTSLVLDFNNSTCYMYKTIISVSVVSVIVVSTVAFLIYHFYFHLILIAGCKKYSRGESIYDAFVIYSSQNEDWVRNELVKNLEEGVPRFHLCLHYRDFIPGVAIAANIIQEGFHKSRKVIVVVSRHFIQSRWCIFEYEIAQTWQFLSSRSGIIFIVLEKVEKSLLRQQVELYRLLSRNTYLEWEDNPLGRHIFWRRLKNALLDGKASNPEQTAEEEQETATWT

No constants are given. Whether binding was seen depends on the method and setting. In cells and extracts the contact can be indirect. Some entries that bind do so weakly or less than the wild type.

B1: myeloid differentiation protein-2 (protein, UniProt Q9JHF9 19-160)
chain: EKQQWFCNSSDAIISYSYCDHLKFPISISSEPCIRLRGTNGFVHVEFIPRGNLKYLYFNLFISVNSIELPKRKEVLCHGHDDDYSFCRALKGETVNTSIPFSFEGILFPKGHYRCVAEAIAGDTEEKLFCLNFTIIHRRDVN
As to B1, the binding result was “binds”.

These data come from publication PMC5703971.
